Results are given in words; binding and its absence hold for the method and conditions named. In cells and extracts the contact can be indirect. These calls come from enrichment with a bait or labelling near it, and not all partners need be listed.
B1: Pyrroline-5-carboxylate reductase 2 (protein, UniProt Q96C36 1-320)
chain: MSVGFIGAGQLAYALARGFTAAGILSAHKIIASSPEMNLPTVSALRKMGVNLTRSNKETVKHSDVLFLAVKPHIIPFILDEIGADVQARHIVVSCAAGVTISSVEKKLMAFQPAPKVIRCMTNTPVVVQEGATVYATGTHALVEDGQLLEQLMSSVGFCTEVEEDLIDAVTGLSGSGPAYAFMALDALADGGVKMGLPRRLAIQLGAQALLGAAKMLLDSEQHPCQLKDNVCSPGGATIHALHFLESGGFRSLLINAVEASCIRTRELQSMADQEKISPAALKKTLLDRVKLESPTVSTLTPSSPGKLLTRSLALGGKKD
B2: Heterogeneous nuclear ribonucleoprotein A0 (protein, UniProt Q13151 1-305)
chain: MENSQLCKLFIGGLNVQTSESGLRGHFEAFGTLTDCVVVVNPQTKRSRCFGFVTYSNVEEADAAMAASPHAVDGNTVELKRAVSREDSARPGAHAKVKKLFVGGLKGDVAEGDLIEHFSQFGTVEKAEIIADKQSGKKRGFGFVYFQNHDAADKAAVVKFHPIQGHRVEVKKAVPKEDIYSGGGGGGSRSSRGGRGGRGRGGGRDQNGLSKGGGGGYNSYGGYGGGGGGGYNAYGGGGGGSSYGGSDYGNGFGGFGSYSQHQSSYGPMKSGGGGGGGGSSWGGRSNSGPYRGGYGGGGGYGGSSF

Biological target: His-tagged full length DENV2 capsid (purified) (Dengue virus serotype 2)
Assay: affinity purification with mass spectrometry; 2 mg purified His-capsid added in solution to 5 mg pre-cleared Huh-7 lysate, 4°C 2 h, captured on Ni-NTA beads, washed with 50 mM imidazole, eluted with 100 and 250 mM imidazole, LC MS/MS; 5% false-discovery rate, minimum 2 peptides per protein; only the target purified

Binder	binding
B1	binds
B2	binds
